Results are given in words; binding and its absence hold for the method and conditions named. Binding seen in cells or lysates may run through a third protein. A yes stands for co-enrichment or nearness to the bait. Other partners may have been found.
B1: Nup155 (protein, UniProt Q99P88 1-1391)
chain: MPSVLGSMMVASTSAAASLQEALENAGRLIDRQLQEDRMYPDLSELLMVSAPNSPTVSGMSDMDYPLQGPGLLSVPSLPEISTIRRVPLPPELVEQFGHMQCNCMMGVFPPISRAWLTIDSDIFMWNYEDGGDLAYFDGLSETILAVGLVKPKAGIFQPHVRHLLVLATPVDIVILGLSYANVQTGSGILNDSMCGGMQLLPDPLYSLPTDNTYLLTITSTDNGRIFLAGKDGCLYEVAYQAEAGWFSQRCRKINHSKSSLSFLVPSLLQFTFSEDDPIVQIEIDNSRNILYTRSEKGVIQVYDLGHDGQGMSRVASVSQNAIVSAAGNIARTIDRSVFKPIVQIAVIESSESLDCQLLAVTHAGVRLYFSTCPFRQPLARPNTLTLVHVRLPPGFSASSTVEKPSKVHKALYSKGILLMTASENEDNDILWCVNHDTFPFQKPMMETQMTTRVDGHSWALSAIDELKVDKIITPLNKDHIPITDSPVVVQQHMLPPKKFVLLSAQGSLMFHKLRPVDQLRHLLVSNVGGDGEEIERFFKLHQEDQACATCLILACSTAACDREVSAWATRAFFRYGGEAQMRFPATLPTPSNVGPILGSPMYSSSPVPSGSPYPNPSSLGTPSHGAQPPTMSTPMCAVGSPAMQAASMSGLTGPEIVYSGKHNGICIYFSRIMGNIWDASLVVERVFKSSNREITAIESSVPVQLLESVLQELKGLQEFLDRNSQFSGGPLGNPNTTARVQQRLVGFMRPENGNTQQMQQELQRKFQEAQLSEKISLQAIQQLVRKSYQALALWKLLCEHQFSVIVGELQKEFQEQLKITTFKDLVIRDKEVTGALIASLINCYIRDNAAVDGISLHLQDTCPLLYSTDDAVCSKANELLQRSRQVQSKTERERMLRESLKEYQKISNQVDLPSVCAQYRQVRFYEGVVELSLTAAEKKDPQGLGLHFYKHGEPEEDVVGLQTFQERLNSYKCITDTLQELVNQSKAAPQSPSVPKKPGPPVLSSDPNMLSNEEAGHHFEQMLKLAQRSKDELFSIALYNWLIQADLADKLLQIASPFLEPHLVRMARVDQNRVRYMDLLWRYYEKNRSFSSAARVLSKLADMHSTEISLQQRLEYIARAILSAKSSTAISSIAADGEFLHELEEKMEVARIQLQIQETLQRQYSHHSSVQDAISQLDSELMDITKLYGEFADPFKLAECKLAVIHCAGYSDPILVHTLWQDIIEKELNDSVALSSSDRMHALSLKLVLLGKIYAGTPRFFPLDFIVQFLEQQVCTLNWDVGFVIQTMNEIGVPLPRLLEVYDQLFKSRDPFWNRVKSPLHLLDCIHVLLTRYVENPSLVLNCERRRFTNLCLDAVCGYLVELQSMSSSVAVQAITGNFKSLQAKLERLH
B2: MCM5 (protein, UniProt P49718 1-734)
chain: MSGFDDPGIFYSDSFGGDPGAEEGQARKSQLQRRFKEFLRQYRVGTDRTGFTFKYRDELKRHYNLGEYWIEVEMEDLASFDEELADHLHKQPAEHLQLLEEAAKEVADEVTRPRPAGDELLQDIQVMLKSDASPSSIRILKSDMMSHLVKIPGIIISASAVRAKATRISIQCRSCHNTLTNIAMRPGLEGYALPRKCNMDQAGRPKCPLDPYFIMPDKCKCVDFQTLKLQELPDAVPHGEMPRHMQLYCDRYLCDKVVPGNRVTIMGIYSIKKFGLNPSKGRDRVGVGIRSSYIRVLGIQVDTDGSGRSFAGSVSPQEEEEFRRLAALPNIYELISKSISPSIFGGMDMKKAIACLLFGGSRKRLPDGLTRRGDINLLMLGDPGTAKSQLLKFVEKCSPIGVYTSGKGSSAAGLTASVIRDPSSRNFIMEGGAMVLADGGVVCIDEFDKMREDDRVAIHEAMEQQTISIAKAGITTTLNSRCSVLAAANSVFGRWDETKGEDNIDFMPTILSRFDMIFIVKDEHNEERDMMLAKHVMTLHVSALTQTQAVEGEIDLAKMKKFIAYCRARCGPRLSAEAAEKLKNRYIIMRSGARQHERDSDRRSSIPITVRQLEAIVRIAEALSKMKLQPFATEADVEEALRLFQVSTLDAALSGNLSGVEGFTTQEDQEMLSRIEKQLKRRFAIGSQVSEHSIVQDFTKQKYPEHAIRKVLQLMLRRGEIQHRMQRKVLYRLK
B3: ZFP161 (protein, UniProt Q08376 1-449)
chain: MEFFISMSETIKYNDDDHKTLFLKTLNEQRLEGEFCDIAIVVEDVKFRAHRCVLAACSTYFKKLFKKLEVDSSSVIEIDFLRSDIFEEVLNYMYTAKISVKKEDVNLMMSSGQILGIRFLDKLCSQKRDVSSPDESNGQSKSKYCLKLNRPIGDAADAQDDDVEEIGDQDDSPSDDTVEGTPPSQEDGKSPTTTLRVQEAILKELGSEEVRKVNCYGQEVESMETPESKDLGSQTPQALTFNDGMSEVKDEQTPGWTTAASDMKFEYLLYGHHREQIACQACGKTFSDEGRLRKHEKLHTADRPFVCEMCTKGFTTQAHLKEHLKIHTGYKPYSCEVCGKSFIRAPDLKKHERVHSNERPFACHMCDKAFKHKSHLKDHERRHRGEKPFVCGSCTKAFAKASDLKRHENNMHSERKQVTPSAIQSETEQLQAAAMAAEAEQQLETIACS

Chains of the proteins cited; added tags and fusions are not shown.
UniProt G5E870: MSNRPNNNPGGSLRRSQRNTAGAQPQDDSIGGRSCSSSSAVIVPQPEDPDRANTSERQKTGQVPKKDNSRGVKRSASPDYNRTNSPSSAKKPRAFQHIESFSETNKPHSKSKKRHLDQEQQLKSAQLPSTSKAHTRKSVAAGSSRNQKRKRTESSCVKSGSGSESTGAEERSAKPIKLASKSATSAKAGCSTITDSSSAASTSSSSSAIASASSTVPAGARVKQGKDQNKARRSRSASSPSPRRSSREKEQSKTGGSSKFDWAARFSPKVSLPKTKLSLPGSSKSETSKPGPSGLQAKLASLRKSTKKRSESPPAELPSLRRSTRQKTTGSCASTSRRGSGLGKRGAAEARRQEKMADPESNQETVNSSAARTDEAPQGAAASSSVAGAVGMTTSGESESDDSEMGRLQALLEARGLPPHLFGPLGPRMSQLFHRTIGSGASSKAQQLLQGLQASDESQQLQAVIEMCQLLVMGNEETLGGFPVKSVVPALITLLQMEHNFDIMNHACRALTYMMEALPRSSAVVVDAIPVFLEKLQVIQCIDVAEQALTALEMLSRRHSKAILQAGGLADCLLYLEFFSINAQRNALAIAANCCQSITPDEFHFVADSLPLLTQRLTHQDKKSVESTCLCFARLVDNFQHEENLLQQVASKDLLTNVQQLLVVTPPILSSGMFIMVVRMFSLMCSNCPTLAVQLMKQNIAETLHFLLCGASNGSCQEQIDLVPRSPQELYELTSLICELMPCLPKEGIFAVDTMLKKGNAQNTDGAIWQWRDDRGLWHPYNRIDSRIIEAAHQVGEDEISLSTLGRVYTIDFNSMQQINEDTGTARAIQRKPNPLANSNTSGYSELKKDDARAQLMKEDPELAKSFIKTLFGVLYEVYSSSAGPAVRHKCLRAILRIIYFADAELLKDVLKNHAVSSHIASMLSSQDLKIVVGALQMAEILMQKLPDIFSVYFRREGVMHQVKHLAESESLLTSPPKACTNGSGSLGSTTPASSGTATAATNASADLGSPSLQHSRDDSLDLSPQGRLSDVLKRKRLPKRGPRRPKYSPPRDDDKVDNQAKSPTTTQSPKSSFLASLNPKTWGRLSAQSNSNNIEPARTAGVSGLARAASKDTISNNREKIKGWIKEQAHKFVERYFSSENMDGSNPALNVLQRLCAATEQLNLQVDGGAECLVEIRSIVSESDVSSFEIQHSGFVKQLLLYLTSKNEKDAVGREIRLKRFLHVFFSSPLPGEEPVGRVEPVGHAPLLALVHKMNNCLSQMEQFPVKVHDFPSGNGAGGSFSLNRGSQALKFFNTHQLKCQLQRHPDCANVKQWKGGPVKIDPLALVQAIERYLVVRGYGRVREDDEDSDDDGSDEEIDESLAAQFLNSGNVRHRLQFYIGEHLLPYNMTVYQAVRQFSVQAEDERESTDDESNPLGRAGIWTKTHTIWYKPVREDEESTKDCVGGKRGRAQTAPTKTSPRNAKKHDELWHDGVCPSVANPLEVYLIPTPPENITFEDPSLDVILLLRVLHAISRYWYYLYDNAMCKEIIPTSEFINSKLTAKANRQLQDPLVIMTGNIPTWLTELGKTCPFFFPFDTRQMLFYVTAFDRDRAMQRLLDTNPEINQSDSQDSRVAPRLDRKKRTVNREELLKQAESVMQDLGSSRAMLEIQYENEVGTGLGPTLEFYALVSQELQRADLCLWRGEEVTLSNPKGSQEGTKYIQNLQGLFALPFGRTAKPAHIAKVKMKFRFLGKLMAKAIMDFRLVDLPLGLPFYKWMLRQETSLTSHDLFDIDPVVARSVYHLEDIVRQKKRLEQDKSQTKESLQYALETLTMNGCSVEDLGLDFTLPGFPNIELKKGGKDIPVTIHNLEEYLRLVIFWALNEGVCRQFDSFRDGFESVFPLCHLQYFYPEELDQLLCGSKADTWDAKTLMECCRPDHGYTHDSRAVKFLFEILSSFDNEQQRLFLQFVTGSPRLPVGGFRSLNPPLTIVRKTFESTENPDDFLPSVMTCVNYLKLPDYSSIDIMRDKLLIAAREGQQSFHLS
UniProt P97496: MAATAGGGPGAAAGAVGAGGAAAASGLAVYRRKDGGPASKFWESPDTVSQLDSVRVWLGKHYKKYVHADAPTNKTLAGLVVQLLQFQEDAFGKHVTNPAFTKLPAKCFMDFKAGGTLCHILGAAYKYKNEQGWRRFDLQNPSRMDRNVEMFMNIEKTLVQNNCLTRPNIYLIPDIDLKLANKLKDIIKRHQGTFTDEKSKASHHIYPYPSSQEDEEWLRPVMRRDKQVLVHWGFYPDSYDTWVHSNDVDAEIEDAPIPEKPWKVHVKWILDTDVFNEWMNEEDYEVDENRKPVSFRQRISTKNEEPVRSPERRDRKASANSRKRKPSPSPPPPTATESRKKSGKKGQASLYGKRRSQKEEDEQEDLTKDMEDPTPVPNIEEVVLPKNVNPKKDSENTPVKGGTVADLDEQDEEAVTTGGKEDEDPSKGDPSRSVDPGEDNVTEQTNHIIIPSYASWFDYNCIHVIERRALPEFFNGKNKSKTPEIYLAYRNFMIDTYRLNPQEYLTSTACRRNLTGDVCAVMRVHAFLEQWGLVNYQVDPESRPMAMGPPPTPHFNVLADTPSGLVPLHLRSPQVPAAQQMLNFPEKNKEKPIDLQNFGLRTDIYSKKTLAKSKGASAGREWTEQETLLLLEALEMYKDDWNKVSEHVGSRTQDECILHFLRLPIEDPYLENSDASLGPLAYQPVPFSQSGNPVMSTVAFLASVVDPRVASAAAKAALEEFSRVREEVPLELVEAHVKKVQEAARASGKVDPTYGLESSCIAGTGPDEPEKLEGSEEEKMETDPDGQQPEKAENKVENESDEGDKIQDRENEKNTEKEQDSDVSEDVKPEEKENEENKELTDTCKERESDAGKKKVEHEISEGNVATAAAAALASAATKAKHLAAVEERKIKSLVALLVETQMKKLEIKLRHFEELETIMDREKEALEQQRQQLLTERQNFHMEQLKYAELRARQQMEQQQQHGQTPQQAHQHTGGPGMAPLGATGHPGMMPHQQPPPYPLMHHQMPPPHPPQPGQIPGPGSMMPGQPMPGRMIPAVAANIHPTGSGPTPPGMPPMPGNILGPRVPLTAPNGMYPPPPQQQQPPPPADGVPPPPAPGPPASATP

biological target: SETDB1 (mouse (endogenous in TT2 mESCs)) (UniProt O88974); assay: affinity purification with mass spectrometry; IP of endogenous SETDB1 (anti-SETDB1 H300 crosslinked to protein G sepharose) against rabbit IgG from the 0.5 M KCl anionic column fraction (depleted of SENP1) of TT2 mESC nuclear extract prepared without NEM; overnight at 4°C; LC-MS/MS

binding, binds:
TRIP12 (from UniProt G5E870 1-2025)
BAF155 (from UniProt P97496 1-1104)
B1
B2
B3
